No constants are given. Whether binding was seen depends on the method and setting. Some results given as binding are weak or reduced against the parent protein; the word gives no strength.
Molecular target: T1, MEF2 (construct not stated) (human, UniProt Q02080 1-365, limits assumed)
T1 construct: The actual construct is unknown; also called MEF2B
T1 sequence: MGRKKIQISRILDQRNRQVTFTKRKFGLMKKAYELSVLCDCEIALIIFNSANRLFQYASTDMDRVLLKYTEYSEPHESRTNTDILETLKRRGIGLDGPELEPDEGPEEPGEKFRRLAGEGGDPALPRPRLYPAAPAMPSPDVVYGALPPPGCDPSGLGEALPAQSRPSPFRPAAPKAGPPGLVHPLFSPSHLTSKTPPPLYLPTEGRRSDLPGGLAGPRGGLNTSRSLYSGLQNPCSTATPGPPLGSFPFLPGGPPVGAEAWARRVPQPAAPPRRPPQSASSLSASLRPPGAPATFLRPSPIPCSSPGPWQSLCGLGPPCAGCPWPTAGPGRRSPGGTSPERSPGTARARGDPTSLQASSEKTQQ
Assay: discussion of the examples; assay not named here

binding: binds
Binder: RAVASTEVKQKLQEFLLSK (also called 19-mer peptide of HDAC9) [HDAC9 peptide RAVASTEVKQKLQEFLLSK (19 residues)]

From patent publication US20060160201A1, “Three-dimensional structures of HDAC9 and Cabin1 and compound structures and methods related thereto” (priority 2003, published 2006)
